Results are given in words; binding and its absence hold for the method and conditions named. For part of these data: Binding seen in cells or lysates may run through a third protein. Some results given as binding are weak or reduced against the parent protein; the word gives no strength.
Assays:
[1] = molecular target: T1, integrin α5β1 purified from human placental tissue (human) (UniProt P08648+P05556); experiment: summary of the examples
[2] = molecular target: T1, integrin α5β1 purified from human placental tissue (human); experiment: co-purification from placental lysates, western blot with anti-MMP-9 Mab
[3] = molecular target: T1, integrin α5β1 purified from human placental tissue (human); experiment: solid phase binding assay, α5β1 immobilized at 10 ug/ml, MMP-9 at 2 ug/ml, detected with anti-MMP-9 Mab

By UniProt entry, the sequences of proteins in these tests, tags left out. Where a name states a change or a piece, a line headed by the entry shows the natural chain unless it says otherwise. Residues count along the entry.
UniProt P08648: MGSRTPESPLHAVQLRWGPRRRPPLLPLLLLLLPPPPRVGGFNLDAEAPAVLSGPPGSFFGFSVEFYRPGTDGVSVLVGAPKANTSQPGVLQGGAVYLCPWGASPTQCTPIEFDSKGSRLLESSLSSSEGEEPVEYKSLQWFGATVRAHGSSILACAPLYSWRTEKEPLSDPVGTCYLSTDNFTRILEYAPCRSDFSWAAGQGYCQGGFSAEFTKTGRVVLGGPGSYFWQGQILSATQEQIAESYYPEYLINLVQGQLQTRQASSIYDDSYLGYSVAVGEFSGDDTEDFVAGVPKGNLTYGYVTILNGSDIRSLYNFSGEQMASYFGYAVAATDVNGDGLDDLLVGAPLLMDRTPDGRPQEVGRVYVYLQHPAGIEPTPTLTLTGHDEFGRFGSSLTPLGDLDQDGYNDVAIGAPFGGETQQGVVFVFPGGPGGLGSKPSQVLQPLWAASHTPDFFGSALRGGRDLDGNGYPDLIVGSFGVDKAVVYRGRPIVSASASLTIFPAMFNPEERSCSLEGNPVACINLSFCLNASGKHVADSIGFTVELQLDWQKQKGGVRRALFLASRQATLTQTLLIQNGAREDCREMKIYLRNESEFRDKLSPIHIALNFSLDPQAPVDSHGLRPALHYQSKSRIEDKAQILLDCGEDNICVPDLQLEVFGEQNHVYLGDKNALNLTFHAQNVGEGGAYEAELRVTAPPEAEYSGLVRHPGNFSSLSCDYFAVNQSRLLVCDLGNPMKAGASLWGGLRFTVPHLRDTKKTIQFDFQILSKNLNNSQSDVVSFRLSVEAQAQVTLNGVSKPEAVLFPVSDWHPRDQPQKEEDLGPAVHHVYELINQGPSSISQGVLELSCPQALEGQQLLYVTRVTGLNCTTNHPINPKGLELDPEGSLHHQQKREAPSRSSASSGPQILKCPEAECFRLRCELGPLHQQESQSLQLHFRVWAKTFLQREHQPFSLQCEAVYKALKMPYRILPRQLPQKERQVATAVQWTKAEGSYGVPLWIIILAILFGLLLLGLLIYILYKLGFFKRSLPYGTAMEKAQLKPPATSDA
UniProt P05556: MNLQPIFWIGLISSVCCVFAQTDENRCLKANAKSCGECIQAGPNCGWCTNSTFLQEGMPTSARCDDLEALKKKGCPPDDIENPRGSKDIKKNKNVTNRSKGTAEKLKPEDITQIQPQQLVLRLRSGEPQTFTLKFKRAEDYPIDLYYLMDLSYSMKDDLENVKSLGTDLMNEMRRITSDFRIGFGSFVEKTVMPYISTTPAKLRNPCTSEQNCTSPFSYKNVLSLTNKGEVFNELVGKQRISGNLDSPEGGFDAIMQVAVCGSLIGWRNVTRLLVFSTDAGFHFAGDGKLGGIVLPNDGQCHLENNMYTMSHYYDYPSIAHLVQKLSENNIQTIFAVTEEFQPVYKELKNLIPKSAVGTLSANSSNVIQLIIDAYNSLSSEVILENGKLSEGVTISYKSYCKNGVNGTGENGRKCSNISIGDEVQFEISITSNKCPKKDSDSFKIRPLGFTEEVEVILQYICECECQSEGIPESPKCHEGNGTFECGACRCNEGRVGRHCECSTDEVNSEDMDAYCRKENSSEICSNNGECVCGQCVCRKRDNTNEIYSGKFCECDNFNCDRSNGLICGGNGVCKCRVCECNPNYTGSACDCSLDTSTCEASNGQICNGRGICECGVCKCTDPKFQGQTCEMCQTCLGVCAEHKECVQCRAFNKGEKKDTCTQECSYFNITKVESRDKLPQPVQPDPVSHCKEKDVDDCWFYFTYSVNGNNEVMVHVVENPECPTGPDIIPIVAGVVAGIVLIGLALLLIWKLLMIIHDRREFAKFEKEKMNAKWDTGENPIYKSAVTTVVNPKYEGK
UniProt P14780, residues 20-707: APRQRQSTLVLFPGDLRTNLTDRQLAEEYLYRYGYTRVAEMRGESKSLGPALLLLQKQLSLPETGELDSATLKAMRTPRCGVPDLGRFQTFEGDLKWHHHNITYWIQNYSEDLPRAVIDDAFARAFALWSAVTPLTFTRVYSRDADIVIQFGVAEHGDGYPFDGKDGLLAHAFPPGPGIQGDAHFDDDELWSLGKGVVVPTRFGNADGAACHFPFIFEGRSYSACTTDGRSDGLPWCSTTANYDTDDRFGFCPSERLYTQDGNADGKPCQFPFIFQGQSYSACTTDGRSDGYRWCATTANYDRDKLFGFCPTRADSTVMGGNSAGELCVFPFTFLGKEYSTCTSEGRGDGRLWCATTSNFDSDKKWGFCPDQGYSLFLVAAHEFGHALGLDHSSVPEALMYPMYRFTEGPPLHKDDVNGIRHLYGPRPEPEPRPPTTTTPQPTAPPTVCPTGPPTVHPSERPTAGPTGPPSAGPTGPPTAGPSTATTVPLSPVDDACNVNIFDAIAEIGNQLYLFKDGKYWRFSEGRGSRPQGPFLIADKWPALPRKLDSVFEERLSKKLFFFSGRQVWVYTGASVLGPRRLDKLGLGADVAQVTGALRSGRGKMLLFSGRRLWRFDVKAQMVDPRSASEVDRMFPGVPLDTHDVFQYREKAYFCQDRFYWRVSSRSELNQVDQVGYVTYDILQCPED

Measured: binding

Recombinant human MMP-9 (from UniProt P14780 20-707) (enzyme)
binds: all assays above

Source: patent US20060062777A1
